Data taken from patent US20220017495A1, “CONJUGATES OF BIVALENT EVANS BLUE DYE DERIVATIVES AND METHODS OF USE” (THE UNITED STATES OF AMERICA, AS REPRESENTED BY THE …, priority 2019, published 2022).
Where a name gives a salt, the structure may show the parent alone.

Test: Fluorescence lymphatic imaging after foot pad injection
Format: in vivo, mice
Settings: for Time window between detection of the popliteal LN and the sciatic LN: 10 μg into foot pad

| Structure (SMILES) | Time at which the popliteal LN was visualized [min p.i.] | Time at which the sciatic LN were illuminated | Time window between detection of the popliteal LN and the sciatic LN | Time to illuminate the sentinel and secondary LNs [min] |
| --- | --- | --- | --- | --- |
| Cc1cc(-c2ccc(NC(=O)CN3CCN(CC(=O)O)CCN(CC(=O)Nc4ccc(-c5ccc(N=Nc6ccc7c(S(=O)(=O)O)cc(S(=O)(=O)O)c(N)c7c6O)c(C)c5)cc4C)CC3)c(C)c2)ccc1N=Nc1ccc2c(S(=O)(=O)O)cc(S(=O)(=O)O)c(N)c2c1O [N(tEB)2] | 30 | around 90 min p.i. | up to 60 min |  |
| Cc1cc(-c2ccc(NC(=O)CN3CCN(CC(=O)O)CCN(CC(=O)O)CC3)c(C)c2)ccc1N=Nc1ccc2c(S(=O)(=O)O)cc(S(=O)(=O)O)c(N)c2c1O [NtEB] |  |  | around 10 min |  |
| Cc1cc(-c2ccc(N=Nc3ccc4c(S(=O)(=O)O)cc(S(=O)(=O)O)c(N)c4c3O)c(C)c2)ccc1N=Nc1ccc2c(S(=O)(=O)O)cc(S(=O)(=O)O)c(N)c2c1O [EB, tetrasodium salt of 6,6′-{(3,3′-dimethyl[1,1′-biphenyl]-4,4′-diyl)bis[diazene-2,1-diyl]}bis(4-amino-5-hydroxynaphthalene-1,3-disulfonate)] |  |  | around 10 min | ≤ 10 |
